Our source for the binding values is publication PMC10261145, “Ceramide sensing by human SPT-ORMDL complex for establishing sphingolipid homeostasis” (Nature Communications, 2023).

Results are given in words; binding and its absence hold for the method and conditions named. Some results given as binding are weak or reduced against the parent protein; the word gives no strength.

The assay addresses T1, serine palmitoyltransferase (SPT) complex (SPTLC1, SPTLC2, SPTssa) (human) (UniProt O15269+O15270+Q969W0).
T1 sequence 1: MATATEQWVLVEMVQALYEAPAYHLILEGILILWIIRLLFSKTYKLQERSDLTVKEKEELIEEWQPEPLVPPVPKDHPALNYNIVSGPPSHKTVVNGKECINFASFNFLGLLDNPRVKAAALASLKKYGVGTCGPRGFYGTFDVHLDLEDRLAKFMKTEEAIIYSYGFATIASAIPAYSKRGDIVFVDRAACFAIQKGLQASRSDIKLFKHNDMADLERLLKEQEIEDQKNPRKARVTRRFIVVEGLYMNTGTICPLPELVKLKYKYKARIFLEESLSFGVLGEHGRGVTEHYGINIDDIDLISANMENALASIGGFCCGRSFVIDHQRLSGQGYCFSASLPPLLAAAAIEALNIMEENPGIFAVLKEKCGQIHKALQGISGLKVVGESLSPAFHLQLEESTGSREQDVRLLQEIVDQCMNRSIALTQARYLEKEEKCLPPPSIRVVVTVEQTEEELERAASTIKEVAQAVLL
T1 sequence 2: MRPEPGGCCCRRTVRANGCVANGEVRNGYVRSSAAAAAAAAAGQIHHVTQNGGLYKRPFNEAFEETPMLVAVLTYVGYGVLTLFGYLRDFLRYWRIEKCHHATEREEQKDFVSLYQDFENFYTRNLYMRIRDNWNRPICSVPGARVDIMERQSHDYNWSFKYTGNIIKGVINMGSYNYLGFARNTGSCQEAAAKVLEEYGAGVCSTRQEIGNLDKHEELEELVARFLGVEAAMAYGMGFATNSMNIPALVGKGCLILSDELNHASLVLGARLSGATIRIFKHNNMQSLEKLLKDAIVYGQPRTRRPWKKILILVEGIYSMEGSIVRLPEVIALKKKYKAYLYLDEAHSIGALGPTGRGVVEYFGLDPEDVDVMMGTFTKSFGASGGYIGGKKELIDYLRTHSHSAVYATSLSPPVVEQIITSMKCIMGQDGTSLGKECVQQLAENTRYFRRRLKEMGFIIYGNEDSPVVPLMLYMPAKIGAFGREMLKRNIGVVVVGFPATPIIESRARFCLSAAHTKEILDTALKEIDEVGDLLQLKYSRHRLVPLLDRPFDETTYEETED
T1 sequence 3: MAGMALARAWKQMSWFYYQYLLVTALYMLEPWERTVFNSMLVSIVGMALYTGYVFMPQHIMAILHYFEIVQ
In words: co-purification (anti-Flag affinity resin, then SEC; Coomassie-stained SDS-PAGE); subunits co-expressed in HEK293F; membranes solubilized with 1% GDN; anti-Flag G1 resin, elution with Flag peptide, Superose 6 in 25 mM HEPES pH 7.5, 150 mM NaCl, 0.01% GDN; which subunit carries the Flag tag is not stated.

B1: ORMDL3-ΔN17 (lacks the N-terminal 16 residues) (domain or fragment, UniProt Q8N138 17-153)
chain: MNSRGIWLSYVLAIGLLHIVLLSIPFVSVPVVWTLTNLIHNMGMYIFLHTVKGTPFETPDQGKARLLTHWEQMDYGVQFTASRKFLTITPIVLYFLTSFYTKYDQIHFVLNTVSLMSVLIPKLPQLHGVRIFGINKY
Consider B1, for which the binding entry is “binds”.

B2: ORMDL2 (protein, UniProt Q53FV1 1-153)
chain: MNVGVAHSEVNPNTRVMNSRGIWLAYIILVGLLHMVLLSIPFFSIPVVWTLTNVIHNLATYVFLHTVKGTPFETPDQGKARLLTHWEQMDYGLQFTSSRKFLSISPIVLYLLASFYTKYDAAHFLINTASLLSVLLPKLPQFHGVRVFGINKY
For the molecule B2, the binding result was “binds”.
